Results are given in words; binding and its absence hold for the method and conditions named. Some results given as binding are weak or reduced against the parent protein; the word gives no strength.
Target: T1, LRP5 ligand binding domain (LBD) bait sequence (which bait is not stated) (human) (UniProt O75197)
T1 sequence: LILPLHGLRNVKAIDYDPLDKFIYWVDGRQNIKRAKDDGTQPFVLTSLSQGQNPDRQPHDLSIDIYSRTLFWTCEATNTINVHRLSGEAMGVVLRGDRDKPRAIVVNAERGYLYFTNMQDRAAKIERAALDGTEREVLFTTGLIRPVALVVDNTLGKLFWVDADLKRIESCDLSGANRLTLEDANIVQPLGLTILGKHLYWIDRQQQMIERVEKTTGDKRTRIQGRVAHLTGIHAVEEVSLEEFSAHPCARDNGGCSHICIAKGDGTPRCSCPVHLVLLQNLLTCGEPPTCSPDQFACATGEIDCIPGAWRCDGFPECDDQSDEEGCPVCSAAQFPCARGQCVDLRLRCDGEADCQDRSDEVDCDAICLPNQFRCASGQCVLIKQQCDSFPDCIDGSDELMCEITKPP
Assay: Y2H (peptides of FIG. 4)

binding: binds
B1: OST262 (LRP5 peptide aptamer) (peptide)
chain: DGSMSDKIIHLTDDSFDTDVLKADGAILVDFWAEWCGPNSLWIGPGDQGLFRRFVFTSGPCKMIAPILDEIADEYQGKLTVAKLNIDQNPGTAPKYGIRGIPTLLLFKNGEVAATKVGALSKGQLKEFLDANLA
